Results from patent publication US20060276460A1, “Use of piperazine phenothiazine derivatives in the manufacture of a medicament with neuroprotector and/or neurotrophic effects on cns and/or pns” (priority 2003, published 2006).

Test system: mesencephalic neurons
Settings: 5 micromoles/l
Description: Cortical neurons are involved in Alzheimer's disease and also in mesencephale neurons or dopaminergic neurons which are themselves involved in Parkinson's disease. (see also protocol described by Y. Mitsumotol, A. Watanabe, T. Miyauchi, F. Jimma, and T. Moriizumi in Stimulation of the regrowth of MPP+/damaged dopaminergic fibers by the treatment of mesencephalic cultures with basigin; J Neural Transm (2001) 108: 1127-1134).
The neuroprotective activity is assessed on MPP+ induced mesencephalic neuron loss with flufenazine concentration of 250 nmol/l
The cells are intoxicated by 2 micromol of MPP+ as neurotoxic during 24 h. The cell culture is then treated with 250 nm/l of flufenazine.
The percentage of mesencephalic neuronal survival obtained when intoxicated cells cultures are incubated with flufenazine is compared to cell cultures without flufenazine.

Nc1nc2ccc(OC(F)(F)F)cc2s1 [Riluzole]
reversal of MPP+ induced neuronal loss: to the same extent
